PubChem BioAssay AID1259308 | NCATS, 2017

- Purpose: 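Candidate targets for better recombinant protein yield in mammalian cells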 (primary screen)
- Cell system: human HEK293 embryonic kidney cells stably expressing firefly luciferase (HEK-CMV-Luc2-Hygro)
- Reagent: single siRNA against human genes, 0.8 pmol siRNA per well
- Timing: 72 h
- Measured: 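Reporter luminescence and viable-cell signal on separate replicate plates, given as percent of non-targeting control and median/MAD z-scores, plus per-cell luciferase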
- Reading the numbers: total luciferase, z-score and total luciferase, % of control: higher = more reporter protein produced
- Rule for the call: 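An siRNA counts as active if its total luciferase robust z-score exceeds 3; genes with two or more such siRNAs out of three were retested with fresh siRNAs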
- Meaning of the calls: active = raised luciferase; inactive = no rise
The whole screen tested about 59,000 reagents; this is a random part of them. Of all reagents, about 1,510 (2.6%) were called active. 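Calls use total luciferase alone and ignore viability, so some active siRNAs may act by altering cell number.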 Unmarked entries are inactive. The numbers tell different reagents against one gene apart. Not all columns of the deposit are shown.

BSND #1 | total luciferase, z-score: 1.56; total luciferase, % of control: 113
BSND #2 | total luciferase, z-score: -0.241; total luciferase, % of control: 77.1
BSND #3 | total luciferase, z-score: 1.98; total luciferase, % of control: 121
HNRNPUL1 #1 | total luciferase, z-score: -0.274; total luciferase, % of control: 76.4
HNRNPUL1 #2 | total luciferase, z-score: 0.627; total luciferase, % of control: 94.4
HNRNPUL1 #3 | total luciferase, z-score: -1.4; total luciferase, % of control: 53.9
TCF21 #1 | total luciferase, z-score: -0.276; total luciferase, % of control: 76.4
TCF21 #2 | total luciferase, z-score: -0.77; total luciferase, % of control: 66.6
TCF21 #3 | total luciferase, z-score: -1.52; total luciferase, % of control: 51.7
HLA-C #1 | total luciferase, z-score: 0.622; total luciferase, % of control: 94.3
HLA-C #2 | total luciferase, z-score: -0.482; total luciferase, % of control: 72.3
HLA-C #3 | total luciferase, z-score: 0.568; total luciferase, % of control: 93.2
TFCP2 #1 | total luciferase, z-score: -0.819; total luciferase, % of control: 65.6
TFCP2 #2 | total luciferase, z-score: 2.92; total luciferase, % of control: 140
TFCP2 #3 | total luciferase, z-score: 0.522; total luciferase, % of control: 92.3
BMS1 #1 | total luciferase, z-score: -1.79; total luciferase, % of control: 46.3
BMS1 #2 | total luciferase, z-score: -1.58; total luciferase, % of control: 50.4
BMS1 #3 | total luciferase, z-score: -0.814; total luciferase, % of control: 65.7
TXNDC8 #1 | total luciferase, z-score: -0.605; total luciferase, % of control: 69.8
TXNDC8 #2 | total luciferase, z-score: -0.00347; total luciferase, % of control: 81.8
TXNDC8 #3 | total luciferase, z-score: -0.535; total luciferase, % of control: 71.3
TEKT5 #1 | total luciferase, z-score: 2.46; total luciferase, % of control: 131
TEKT5 #2 | total luciferase, z-score: 1.36; total luciferase, % of control: 109
TEKT5 #3 | total luciferase, z-score: -0.641; total luciferase, % of control: 69.1
LEP #1 | total luciferase, z-score: 0.466; total luciferase, % of control: 91.2
LEP #2 | total luciferase, z-score: 2.37; total luciferase, % of control: 129
LEP #3 | total luciferase, z-score: 1.01; total luciferase, % of control: 102
SLC9A6 #1 | total luciferase, z-score: -0.712; total luciferase, % of control: 67.7
SLC9A6 #2 | total luciferase, z-score: -0.465; total luciferase, % of control: 72.6
SLC9A6 #3 | total luciferase, z-score: 0.0609; total luciferase, % of control: 83.1
SPDYE3 #1 | total luciferase, z-score: 2.62; total luciferase, % of control: 134
SPDYE3 #2 | total luciferase, z-score: -1.92; total luciferase, % of control: 43.6
SPDYE3 #3 | total luciferase, z-score: 0.116; total luciferase, % of control: 84.2

Entries above whose target name starts with S or s:
SLC9A6 #1 | total luciferase, z-score: -0.712; total luciferase, % of control: 67.7
SLC9A6 #2 | total luciferase, z-score: -0.465; total luciferase, % of control: 72.6
SLC9A6 #3 | total luciferase, z-score: 0.0609; total luciferase, % of control: 83.1
SPDYE3 #1 | total luciferase, z-score: 2.62; total luciferase, % of control: 134
SPDYE3 #2 | total luciferase, z-score: -1.92; total luciferase, % of control: 43.6
SPDYE3 #3 | total luciferase, z-score: 0.116; total luciferase, % of control: 84.2
